Assay results as given in ChEMBL document CHEMBL4261608, “Design, synthesis and anti-mycobacterial activity evaluation of benzofuran-isatin hybrids” (Eur J Med Chem, 2018).
Values after ≈ are worked out from the molar mass of the structure shown.

Tested on: Mycobacterium tuberculosis
Experiment: Antimycobacterial activity against ethambutol/isoniazid/rifampicin-resistant Mycobacterium tuberculosis incubated for 7 days by rapid direct susceptibility test
Assay type: functional
Details: 168 h

## CO[C@H]1/C=C/O[C@@]2(C)Oc3c(C)c(O)c4c(O)c(c(/C=N/N5CCN(C)CC5)c(O)c4c3C2=O)NC(=O)/C(C)=C\C=C\[C@H](C)[C@H](O)[C@@H](C)[C@@H](O)[C@@H](C)[C@H](OC(C)=O)[C@@H]1C [RIFAMPIN]
  MIC: 64 µg/mL (≈ 77.8 µM)
